Test results published in article PMC12974444.

The substances below were run against T1, endogenous FLAG-Strep-Med19 fusion (rat (endogenous in INS-1)) (UniProt D3ZAP1) (assay: co-IP; FLAG immunoprecipitation of endogenous FLAG-Med19 from INS-1 extracts (Med14 WT and Med14 S983A Crispr knock-in lines; control, FSK, H-89, Ex-4, Semaglutide or Tirzepatide treatment), western blot of the immunoprecipitates).
T1 sequence: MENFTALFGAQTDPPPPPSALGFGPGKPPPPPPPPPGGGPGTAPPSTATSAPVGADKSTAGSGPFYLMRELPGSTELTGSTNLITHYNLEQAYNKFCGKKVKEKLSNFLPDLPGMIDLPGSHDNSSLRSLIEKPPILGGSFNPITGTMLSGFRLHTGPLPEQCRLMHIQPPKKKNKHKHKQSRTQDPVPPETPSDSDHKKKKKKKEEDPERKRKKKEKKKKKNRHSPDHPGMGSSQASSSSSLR

Row | Substance | binding
1 | Med12 (rat (endogenous in INS-1)) | binds
2 | Med30 (rat (endogenous in INS-1)) | binds
3 | Med26 (rat (endogenous in INS-1)) | binds

Results are given in words; binding and its absence hold for the method and conditions named. Binding seen in cells or lysates may run through a third protein. Binding calls can cover weak binding; strength is not graded here. Tags and fused reporters may be left off the sequences shown.
